Results deposited as PubChem BioAssay AID504791 (Drosophila RNAi Screening Center, 2011)
The deposit covers about 23,000 reagents; shown is a random part of those that have a named target and a result. In the full data, 199 (0.86%) got an active call. 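Plate-scaled ratios behind the calls are not deposited; printed light signals are raw; many rows marked increased or decreased are still called inactive.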 No sequences are given here. Not given: the direction of the score.

Test: 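Genes of the fly required for silencing by miRNA, siRNA or endo-siRNA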 (primary screen)
System: Drosophila S2-derived reporter cells
Reagents: long dsRNA against Drosophila genes, about 150-250 ng dsRNA per well (siRNA assay); about 80-120 ng (miRNA assay)
Timing: about 5 days (siRNA assay); about 4 days (miRNA assay)
Challenge: copper sulfate induction of reporters: 25 µM (siRNA assay); 200 mM stated (miRNA assay), 1-2 days before reading
Detection: 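Dual luciferase assay: Renilla to firefly signal ratio in each well, scaled to the mean ratio of its plate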
Call rule: 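a well was a first-pass pick when its plate-scaled ratio rose above 1.5 (siRNA assay) or 1.6 (miRNA assay), or dropped below 0.6; a gene counted only if two separate dsRNAs agreed on retest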

stable siRNA reporter change	stable assay Renilla, run 1 (luminescence)	stable assay firefly, run 1 (luminescence)	Outcome	gene	dsRNA
	5494	4.61e5	inactive	ND-19	DRSC04404
	7303	3.68e5	inactive	Arf1	DRSC11606
	6647	2.93e5	inactive	NimC3	DRSC03556
	4803	5.82e5	inactive	NimC3	DRSC22528
	5755	4.08e5	inactive	RpS14a	DRSC18710
	7324	4.48e5	inactive	AOX2	DRSC15338
	6078	3.28e5	inactive	CG14573	DRSC11734
	7327	5.69e5	inactive	arg	DRSC18737
	6572	4.14e5	inactive	mRpS10	DRSC15557
	6806	4.31e5	inactive	Ppn	DRSC15328
reporter ratio lowered past the hit cutoff	5631	5.09e5	inactive	CG15784	DRSC18090
	6151	4.88e5	inactive	CG13001	DRSC19520
	5379	5.46e5	inactive	CG13001	DRSC22443
	6731	4.27e5	inactive	CG17928	DRSC02644
	1.38e5	1.22e5	inactive	CG5126	DRSC00680
	7794	3.79e5	inactive	CG4467	DRSC15585
	7811	3.96e5	inactive	CG32453	DRSC21673
	6830	3.70e5	inactive	CG14160	DRSC10161
	7594	3.43e5	inactive	CG14340	DRSC00370
	10741	3.30e5	inactive	Rab8	DRSC11261
	6634	4.33e5	inactive	CG9997	DRSC16591

Targets above whose gene name starts with R or r (2):
stable siRNA reporter change	stable assay Renilla, run 1 (luminescence)	stable assay firefly, run 1 (luminescence)	Outcome	gene	dsRNA
	5755	4.08e5	inactive	RpS14a	DRSC18710
	10741	3.30e5	inactive	Rab8	DRSC11261

The results go on:
stable siRNA reporter change	stable assay Renilla, run 1 (luminescence)	stable assay firefly, run 1 (luminescence)	Outcome	gene	dsRNA
	4683	3.73e5	inactive	CG42535	DRSC09041
	7791	4.83e5	inactive	Usp1	DRSC14155
	7467	3.67e5	inactive	CG11384	DRSC18628
	8513	3.70e5	inactive	Dhrs4	DRSC09773
	4638	2.17e5	inactive	Polr2L	DRSC14630
	6122	3.74e5	inactive	Drsl5	DRSC08159
	5931	3.97e5	inactive	Cep89	DRSC07110
	7314	5.39e5	inactive	CG3091	DRSC18274
	10545	5.50e5	inactive	Miro	DRSC15795
	6231	3.03e5	inactive	trh	DRSC08355
	6163	3.21e5	inactive	trh	DRSC08739
reporter ratio raised past the hit cutoff	12094	3.36e5	active	Nup160	DRSC02774
	7590	4.55e5	inactive	Nedd4	DRSC11234
	9426	4.20e5	inactive	Nedd4	DRSC21548
